Measurements: the supplement of paper PMC12819154, “High-throughput peptide-centric local stability assay extends protein–ligand identification to membrane proteins, tissues and bacteria” (Nature Structural & Molecular Biology, 2025)
This is one part of the list. Small differences around the control level are noise.

Sequences of proteins named here, by UniProt entry; tags and fusion partners are left off. A change or cut given only in a name is not applied to a line headed by its entry.
UniProt Q9H6R0: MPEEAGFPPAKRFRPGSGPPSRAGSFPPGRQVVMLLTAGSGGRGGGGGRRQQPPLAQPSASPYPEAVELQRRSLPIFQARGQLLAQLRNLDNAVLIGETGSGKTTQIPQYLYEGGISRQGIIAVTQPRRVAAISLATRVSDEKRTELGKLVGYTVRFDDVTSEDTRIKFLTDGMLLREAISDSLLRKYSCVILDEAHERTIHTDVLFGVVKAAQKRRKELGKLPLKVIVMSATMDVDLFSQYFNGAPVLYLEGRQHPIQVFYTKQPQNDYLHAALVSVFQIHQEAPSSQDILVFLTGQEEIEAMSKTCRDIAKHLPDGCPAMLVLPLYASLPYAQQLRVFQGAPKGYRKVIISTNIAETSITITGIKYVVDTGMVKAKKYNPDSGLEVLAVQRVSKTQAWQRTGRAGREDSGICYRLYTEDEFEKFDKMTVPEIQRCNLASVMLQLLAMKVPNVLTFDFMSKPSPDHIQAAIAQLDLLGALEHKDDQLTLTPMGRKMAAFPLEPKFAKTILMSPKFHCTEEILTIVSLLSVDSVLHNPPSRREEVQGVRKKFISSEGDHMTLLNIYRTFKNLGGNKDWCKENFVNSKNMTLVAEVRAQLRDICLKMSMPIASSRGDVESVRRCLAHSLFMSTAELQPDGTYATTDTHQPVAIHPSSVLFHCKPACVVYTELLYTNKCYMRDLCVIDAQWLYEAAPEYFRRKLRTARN
UniProt Q9H4R4: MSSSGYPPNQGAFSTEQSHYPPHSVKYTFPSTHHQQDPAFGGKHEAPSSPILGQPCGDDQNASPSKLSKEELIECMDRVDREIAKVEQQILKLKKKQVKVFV
UniProt Q9H4K7: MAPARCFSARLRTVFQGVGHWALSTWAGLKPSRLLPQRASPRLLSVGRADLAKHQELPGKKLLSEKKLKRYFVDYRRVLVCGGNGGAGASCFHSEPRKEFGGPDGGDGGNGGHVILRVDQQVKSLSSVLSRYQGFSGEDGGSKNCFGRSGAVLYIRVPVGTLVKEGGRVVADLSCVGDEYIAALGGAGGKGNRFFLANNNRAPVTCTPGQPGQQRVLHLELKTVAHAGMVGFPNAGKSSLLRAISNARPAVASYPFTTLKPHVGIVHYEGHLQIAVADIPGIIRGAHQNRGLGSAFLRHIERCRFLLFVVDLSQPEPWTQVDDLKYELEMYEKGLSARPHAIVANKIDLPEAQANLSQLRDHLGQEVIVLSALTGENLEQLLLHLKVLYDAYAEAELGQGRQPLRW
UniProt Q9H857: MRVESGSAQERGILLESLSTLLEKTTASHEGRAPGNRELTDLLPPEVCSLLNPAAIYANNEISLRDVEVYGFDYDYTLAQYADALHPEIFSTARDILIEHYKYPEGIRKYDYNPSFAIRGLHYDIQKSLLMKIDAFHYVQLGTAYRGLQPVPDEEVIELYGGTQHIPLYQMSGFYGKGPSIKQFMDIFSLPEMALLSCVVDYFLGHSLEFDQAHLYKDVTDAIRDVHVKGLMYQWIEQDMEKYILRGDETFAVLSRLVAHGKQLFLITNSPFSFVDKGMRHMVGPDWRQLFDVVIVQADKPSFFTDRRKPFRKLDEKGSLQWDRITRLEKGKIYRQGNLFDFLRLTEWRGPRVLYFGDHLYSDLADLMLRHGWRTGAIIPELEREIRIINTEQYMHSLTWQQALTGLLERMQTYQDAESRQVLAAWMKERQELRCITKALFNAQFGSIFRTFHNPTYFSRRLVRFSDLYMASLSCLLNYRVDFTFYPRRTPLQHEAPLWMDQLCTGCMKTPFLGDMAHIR
UniProt Q9H5H4: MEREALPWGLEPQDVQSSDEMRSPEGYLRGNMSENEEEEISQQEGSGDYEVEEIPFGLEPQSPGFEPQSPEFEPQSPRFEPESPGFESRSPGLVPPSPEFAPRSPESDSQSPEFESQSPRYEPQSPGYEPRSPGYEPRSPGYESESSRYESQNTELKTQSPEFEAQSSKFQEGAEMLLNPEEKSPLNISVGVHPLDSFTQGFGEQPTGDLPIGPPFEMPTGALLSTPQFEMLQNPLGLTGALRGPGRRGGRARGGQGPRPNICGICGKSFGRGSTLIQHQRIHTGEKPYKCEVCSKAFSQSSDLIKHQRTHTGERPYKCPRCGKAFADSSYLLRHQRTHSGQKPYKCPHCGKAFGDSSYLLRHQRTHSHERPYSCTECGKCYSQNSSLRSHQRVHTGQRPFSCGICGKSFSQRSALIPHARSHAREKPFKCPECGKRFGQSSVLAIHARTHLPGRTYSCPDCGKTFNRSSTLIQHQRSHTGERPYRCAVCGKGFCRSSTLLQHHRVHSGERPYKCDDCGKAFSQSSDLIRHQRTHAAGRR
UniProt Q9HCI7: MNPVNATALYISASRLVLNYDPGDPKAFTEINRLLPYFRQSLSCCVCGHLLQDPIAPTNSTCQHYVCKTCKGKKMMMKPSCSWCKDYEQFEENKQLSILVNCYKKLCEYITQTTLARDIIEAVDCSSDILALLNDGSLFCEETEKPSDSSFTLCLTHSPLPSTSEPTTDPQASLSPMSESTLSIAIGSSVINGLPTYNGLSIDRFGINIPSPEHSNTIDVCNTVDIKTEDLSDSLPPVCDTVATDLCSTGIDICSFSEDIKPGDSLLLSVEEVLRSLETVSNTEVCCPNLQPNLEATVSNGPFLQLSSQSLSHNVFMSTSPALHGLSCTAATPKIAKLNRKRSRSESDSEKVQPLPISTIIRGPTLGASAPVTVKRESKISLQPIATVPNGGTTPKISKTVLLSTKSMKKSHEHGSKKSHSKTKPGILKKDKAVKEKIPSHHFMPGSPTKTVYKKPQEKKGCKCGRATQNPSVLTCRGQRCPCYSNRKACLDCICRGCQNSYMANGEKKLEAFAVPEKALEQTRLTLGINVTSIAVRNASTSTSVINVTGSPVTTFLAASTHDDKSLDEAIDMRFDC
UniProt Q9H816: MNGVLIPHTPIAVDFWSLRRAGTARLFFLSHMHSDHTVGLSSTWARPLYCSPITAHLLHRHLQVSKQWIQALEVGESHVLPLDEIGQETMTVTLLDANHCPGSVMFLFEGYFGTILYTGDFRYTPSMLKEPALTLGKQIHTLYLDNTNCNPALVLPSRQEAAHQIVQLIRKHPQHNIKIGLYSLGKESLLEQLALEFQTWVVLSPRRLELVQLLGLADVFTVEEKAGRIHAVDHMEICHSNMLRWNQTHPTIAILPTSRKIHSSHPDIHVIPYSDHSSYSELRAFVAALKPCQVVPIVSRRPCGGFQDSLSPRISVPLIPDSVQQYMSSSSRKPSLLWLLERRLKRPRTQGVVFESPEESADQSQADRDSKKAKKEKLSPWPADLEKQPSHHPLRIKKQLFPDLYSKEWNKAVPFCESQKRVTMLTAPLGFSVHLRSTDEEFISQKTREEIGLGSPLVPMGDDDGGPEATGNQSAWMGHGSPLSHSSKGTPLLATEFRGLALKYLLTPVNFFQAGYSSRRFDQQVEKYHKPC
UniProt Q9H3R0: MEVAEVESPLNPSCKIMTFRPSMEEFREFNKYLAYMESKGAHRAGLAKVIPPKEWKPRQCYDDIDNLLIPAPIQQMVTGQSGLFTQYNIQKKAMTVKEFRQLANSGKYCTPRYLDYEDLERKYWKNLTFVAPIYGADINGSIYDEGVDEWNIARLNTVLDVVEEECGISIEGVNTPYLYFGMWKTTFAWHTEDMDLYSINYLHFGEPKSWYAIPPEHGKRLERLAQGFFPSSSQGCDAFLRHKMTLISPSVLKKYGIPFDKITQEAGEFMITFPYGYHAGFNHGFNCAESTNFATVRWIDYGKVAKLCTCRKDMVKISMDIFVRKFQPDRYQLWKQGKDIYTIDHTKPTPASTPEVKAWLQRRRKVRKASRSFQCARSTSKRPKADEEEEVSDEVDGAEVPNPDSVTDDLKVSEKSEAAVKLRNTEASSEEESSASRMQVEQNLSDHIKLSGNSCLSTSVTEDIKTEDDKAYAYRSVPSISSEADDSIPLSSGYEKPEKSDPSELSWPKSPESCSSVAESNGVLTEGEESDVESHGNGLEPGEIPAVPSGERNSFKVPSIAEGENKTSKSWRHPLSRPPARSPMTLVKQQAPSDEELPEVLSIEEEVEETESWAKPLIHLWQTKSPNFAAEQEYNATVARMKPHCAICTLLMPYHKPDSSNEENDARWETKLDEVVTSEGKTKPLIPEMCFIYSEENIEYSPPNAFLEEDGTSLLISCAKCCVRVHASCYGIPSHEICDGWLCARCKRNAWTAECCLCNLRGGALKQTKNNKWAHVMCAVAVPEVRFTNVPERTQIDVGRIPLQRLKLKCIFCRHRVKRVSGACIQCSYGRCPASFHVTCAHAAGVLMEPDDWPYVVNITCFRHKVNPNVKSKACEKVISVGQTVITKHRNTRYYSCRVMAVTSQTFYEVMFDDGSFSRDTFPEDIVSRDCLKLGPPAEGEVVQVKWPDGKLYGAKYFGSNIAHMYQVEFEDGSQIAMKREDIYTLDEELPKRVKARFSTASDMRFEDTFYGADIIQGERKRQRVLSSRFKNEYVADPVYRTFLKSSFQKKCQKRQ
UniProt Q9H777: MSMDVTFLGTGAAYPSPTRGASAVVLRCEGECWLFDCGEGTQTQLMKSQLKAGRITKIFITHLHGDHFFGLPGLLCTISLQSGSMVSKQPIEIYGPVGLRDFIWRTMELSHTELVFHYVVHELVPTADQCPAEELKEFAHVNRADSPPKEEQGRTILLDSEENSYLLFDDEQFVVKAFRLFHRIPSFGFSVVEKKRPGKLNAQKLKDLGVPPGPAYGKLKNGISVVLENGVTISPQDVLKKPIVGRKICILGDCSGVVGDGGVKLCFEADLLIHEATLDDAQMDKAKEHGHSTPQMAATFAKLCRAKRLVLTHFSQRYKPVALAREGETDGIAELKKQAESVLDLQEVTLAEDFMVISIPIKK
UniProt Q9H8U3: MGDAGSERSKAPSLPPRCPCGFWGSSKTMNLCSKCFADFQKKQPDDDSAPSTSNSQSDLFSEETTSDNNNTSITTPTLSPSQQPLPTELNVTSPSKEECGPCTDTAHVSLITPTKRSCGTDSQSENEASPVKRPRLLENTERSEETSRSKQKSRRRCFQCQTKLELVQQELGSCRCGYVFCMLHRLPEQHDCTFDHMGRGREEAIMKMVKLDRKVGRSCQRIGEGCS

compound: Cc1nc(Nc2ncc(C(=O)Nc3c(C)cccc3Cl)s2)cc(N2CCN(CCO)CC2)n1 [dasatinib]; assay: log2 fold change of tryptic peptide abundance, ligand vs vehicle (limited proteolysis) (log2 ratio); higher = more trypsin-susceptible (destabilized); settings: ligand concentration: 5 uM; sample: K562 cleared lysate

Q: How did the log2 fold change turn out when “DHX33 (peptide sequence: FDDVTSEDTR, peptide start residue: 157) (UniProt Q9H6R0)” was run?
A: 0.201

Q: With “UniProt Q9H4R4 (peptide sequence: EIAKVEQQILK, peptide start residue: 191)” as the target, how does the log2 fold change read?
A: 0.0403

Q: With “UniProt Q9H4K7 (peptide sequence: SGAVLYIR, peptide start residue: 149)” as the target, how does the log2 fold change read?
A: 0.0774

Q: For “NT5DC2 (peptide sequence: DILIEHYK, peptide start residue: 95) (UniProt Q9H857)”, which log2 fold change is on record?
A: 0.359

Q: How did the log2 fold change turn out when “ZNF768 (peptide sequence: SALIPHAR, peptide start residue: 414) (UniProt Q9H5H4)” was run?
A: 0.11

Q: “MSL2 (peptide sequence: GPTLGASAPVTVKR, peptide start residue: 363) (UniProt Q9HCI7)” was tested. Which log2 fold change did it give?
A: -0.0804

Q: Which log2 fold change does the source give for “UniProt Q9H816 (peptide sequence: QLFPDLYSK, peptide start residue: 399)” here?
A: -0.502

Q: How did the log2 fold change turn out when “KDM4C (peptide sequence: LGPPAEGEVVQVK, peptide start residue: 934) (UniProt Q9H3R0)” was run?
A: 0.384

Q: How did the log2 fold change turn out when “ELAC1 (peptide sequence: DLGVPPGPAYGK, peptide start residue: 207) (UniProt Q9H777)” was run?
A: 0.341

Q: With “ZFAND3 (peptide sequence: CFADFQK, peptide start residue: 35) (UniProt Q9H8U3)” as the target, how does the log2 fold change read?
A: -0.14
